In patent publication US20180224449A1 one finds binding data, which are given here for two molecules.

The chains behind the UniProt entries cited, without tags or fusion partners. Residues count along the entry.
UniProt P02769, residues 25-607: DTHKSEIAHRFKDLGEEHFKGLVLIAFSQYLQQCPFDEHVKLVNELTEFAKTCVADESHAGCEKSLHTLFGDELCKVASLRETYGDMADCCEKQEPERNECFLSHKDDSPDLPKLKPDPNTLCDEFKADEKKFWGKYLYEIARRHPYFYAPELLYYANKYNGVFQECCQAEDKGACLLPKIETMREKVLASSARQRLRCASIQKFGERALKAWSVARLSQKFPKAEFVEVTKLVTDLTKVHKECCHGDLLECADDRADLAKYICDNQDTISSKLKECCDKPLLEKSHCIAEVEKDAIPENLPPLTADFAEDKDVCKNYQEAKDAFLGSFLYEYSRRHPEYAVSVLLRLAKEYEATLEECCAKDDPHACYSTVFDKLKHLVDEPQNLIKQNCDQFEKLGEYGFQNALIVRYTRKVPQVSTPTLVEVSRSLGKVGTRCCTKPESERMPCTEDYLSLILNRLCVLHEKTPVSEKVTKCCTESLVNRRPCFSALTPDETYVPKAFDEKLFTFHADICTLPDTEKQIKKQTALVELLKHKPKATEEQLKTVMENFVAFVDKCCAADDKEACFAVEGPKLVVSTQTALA

Results are given in words; binding and its absence hold for the method and conditions named. Some results given as binding are weak or reduced against the parent protein; the word gives no strength.

For the experiment, the target named is biotinylated bovine serum albumin (bovine) (UniProt P02769). Put plainly: biopanning of the phage library on biotinylated BSA.

B1: M13 phage displaying the PPKINIM peptide (peptide, not shown: large carriers)
chain: PPKINIM
For the molecule B1, the binding entry was “binds”.

B2: M13 bacteriophage displaying the IQTNPTM peptide (peptide, not shown: large carriers)
chain: IQTNPTM
For B2, the binding entry was “binds”.
